Laboratory results reported in patent US20220265775A1, “COMPOSITIONS AND METHODS FOR TREATING PULMONARY EDEMA OR LUNG INFLAMMATION” (priority 2019, published 2022).
At least one structure is not confirmed: it was looked up by name or label, or the drawing left a doubt.

How the values were obtained:
Nrf2 = assay: Western blot of total cellular and nuclear Nrf2 protein in RLE-6TN cells under hyperoxia; type: cell-based, rat; settings: T3 plus wortmannin
Description: FIG. 9. […] The cells were then collected for Western Blot analysis. (A) Cellular total Nrf2 protein; (B) Nuclear Nrf2.
Nuclei were extracted with NE-PER nuclear and cytoplasmic extraction reagents kit (Thermo Fisher Scientific, Inc., Waltham, Mass.) following the manufacturer's instruction.
(§1) The cells were lysed in lysis buffer containing 20 mM Tris HCl (pH 7.5), 150 mM NaCl, 1 mM EDTA, 1 mM EGTA, 1% (vol/vol) Triton X-100 with protease inhibitors (1 mM PMSF, 2 μg/ml pepstatin, and 10 μg/ml each of aprotinin and leupeptin), and phosphatase inhibitors (2.5 mM sodium pyrophosphate, 1 mM β-glycerophosphate, and 1 mM Na3VO4). The lysate was drawn 10 times through a 25-gauge needle on ice for further lysis and then was centrifuged at 13,000 rpm for 15 minutes at 4° C. The supernatant was collected, and the protein concentrations were determined by use of the BCA protein assay kit (Sigma-Aldrich, St. Louis, Mo.). Immediately after this step, equal amounts of protein were subjected to Western blotting analysis.

HO-1 = assay: Western blot of total cellular HO-1 protein in RLE-6TN cells under hyperoxia; type: cell-based, rat; settings: T3 plus wortmannin
Description: FIG. 10. HO-1 upregulation is required for T3-increased RLE-6TN cell survival in hyperoxia. […] The cells were then collected for Western Blot analysis. (B) The cells were incubated in 21% O2 and 5% CO2 for 72 hours in the present of HO-1 inhibitor Tin Protoporphyrin IX (10^−6M). […] Cell viability is assessed with trypan blue. The number of viable cells under specific conditions is presented as a percentage of the cell number related to hyperoxia alone. Data are mean±s.d. of three independent experiments with *=P<0.05; **=P<0.01.
as §1

SMILES: COC[C@H]1OC(=O)c2coc3c2[C@@]1(C)C1=C(C3=O)[C@@H]2CCC(=O)[C@@]2(C)C[C@H]1OC(C)=O [Wortmannin, wortmannin]
- effect on T3-induced increases in Nrf2 total cellular and nuclear protein (Nrf2): blocked the T3-induced increases in both Nrf2 total cellular protein and nuclear protein
- effect on T3-induced increase in total cellular amount of HO-1 protein (HO-1): blocked the T3-induced increases
